In article PMC7862700 one finds binding signal data, which are given here for 40 sequences.

The list shows a part of the results. The source does not settle which construct or isoform was used.

The test concerns the target T1, ETS1 (UniProt P14921).
T1 sequence: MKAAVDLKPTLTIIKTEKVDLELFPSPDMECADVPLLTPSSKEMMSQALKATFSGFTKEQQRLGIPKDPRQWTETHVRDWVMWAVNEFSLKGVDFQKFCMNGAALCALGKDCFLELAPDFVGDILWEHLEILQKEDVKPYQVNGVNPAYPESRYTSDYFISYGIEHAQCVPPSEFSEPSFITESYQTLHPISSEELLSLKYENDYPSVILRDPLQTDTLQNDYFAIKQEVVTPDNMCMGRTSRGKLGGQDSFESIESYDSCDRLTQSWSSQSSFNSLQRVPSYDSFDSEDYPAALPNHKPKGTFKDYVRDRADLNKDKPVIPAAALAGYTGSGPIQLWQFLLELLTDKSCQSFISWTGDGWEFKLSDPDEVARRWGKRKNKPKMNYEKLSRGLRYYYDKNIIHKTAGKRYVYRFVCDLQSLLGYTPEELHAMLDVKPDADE
Put plainly: DAPPL (digital affinity profiling via proximity ligation, sequencing). To be noted: 10 mM Tris-HCl pH 7.5, 50 mM NaCl, 1 mM DTT, 4% glycerol, room temperature, 30 min; GST-TFs on glutathione beads, 16-mer random dsDNA library, 0.1% …; high values mean tight binding; double strand, one strand shown; scale: fold enrichment (6-mer frequency, TF over GST control).
For the sequence ATGAAA, the binding signal stood at 1.21. In turn, TCCCCA had a binding signal of 1.38. As for TGTATC, the figure is 1.39; as for TTGATG, 1.67; as for TTAACC, 1.31. Then CCTCAT, with 1.35; and CTCAGA, with 1.19. As for CACTTC, the figure is 3.51. Turning to ACGCTG, the binding signal came out at 1.14. As to CCGTAA, the binding signal amounted to 1.12.

AAAACT registered a binding signal of 1.33. Then CTGCTA, with 1.42; and ACGTTA, with 1.08; and TCTTGT, with 1.49. As for TTAATG, the figure is 1.18; as for GATACT, 1; as for ATTCTG, 1.25. As for GATTAT, the figure is 1.17; as for TACATT, 1.24. In the case of TATTAA, the binding signal is 1.23. Then ACCATA, with 1.16. Then CTAGCT, with 1.35; and TACTAC, with 1.34; and CCCTGG, with 1.24.

In the case of TTCAAA, the binding signal was found to be 1.35.

TAGGTT had a binding signal of 1.16.

Turning to GGCCCC, the binding signal is 1.02. Consider CGAAAC, for which the binding signal amounted to 1.16. Then GCTACC, with 1.27.

The sequence TTAAGC showed a binding signal of 1.18.

The sequence AGCTTT displayed a binding signal of 1.27. As for TAGCTA, the figure is 1.38; as for GAAGCA, 1.26. As for ACCACC, the figure is 1.03; as for AAATGA, 1.31; as for CTCAAC, 1.28. Then TAACAC, with 1.25; and GGAAAC, with 1.31; and AATGCT, with 1.31. As for GCACTT, the binding signal stood at 1.74.
